Measurements: the supplement of paper PMC10735217
Several values for one entry are separate records, joined by “and”; a condition that tells them apart may be missing. Equal values may be shown once. The list shows a part of the results. This data set is noisy: repeats of one test often differ as much as different tests do.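 Human kidney-derived cells stably carry a construct in which eight TEAD-binding elements drive luciferase, measured by luminescence in a drug-repurposing library screen. A hit is any compound whose signal exceeds the plate mean by more than five robust Z scores.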

Tested on: HEK293A TEAD-LUC reporter
Assay: TEAD-luciferase reporter activity (YAP activation), robust Z score vs plate; higher = stronger YAP/TEAD activation
Details: 24 h

| SMILES | TEAD-luciferase reporter activity (compound concentration: 200 nM) | TEAD-luciferase reporter activity (compound concentration: 2 uM) | TEAD-luciferase reporter activity (compound concentration: 10 uM) |
| --- | --- | --- | --- |
| CC(C)(C)NCC(O)CSc1nc(-c2ccc(C(N)=O)s2)cs1 (stereo not given) [arotinolol] | inactive: -2.02 | inactive: -1.14 | inactive: 0.166 |
| Oc1ccc2c(c1)OC[C@H](c1ccccc1)[C@@H]2c1ccc(OCCN2CCCC2)cc1 | inactive: 2.31 | inactive: -0.212 | inactive: -1.16 |
| CCCCCCCCCCCCCCCC(=O)OCC(=O)[C@@]1(O)[C@H](C)C[C@H]2[C@@H]3CCC4=CC(=O)C=CC4(C)[C@@]3(F)[C@@H](O)CC21C (stereo not given in full) [Dexamethasone 21-Palmitate] | inactive: -1.88 | inactive: -0.543 | inactive: 0.432 |
| COc1c(N2CCC[C@H](N)C2)ccc2c(=O)c(C(=O)O)cn(C3CC3)c12 | inactive: -0.749 | inactive: -0.229 | inactive: -0.617 |
| CCCCCCCCCCCCCCCC(=O)OCC(NC(=O)C(Cl)Cl)C(O)c1ccc([N+](=O)[O-])cc1 (stereo not given) | inactive: 1.95 | inactive: -1.09 | inactive: -0.201 |
| CC(=O)NCCOC(=O)C(Oc1cccc(C(F)(F)F)c1)c1ccc(Cl)cc1 (stereo not given) | inactive: -0.463 | inactive: -0.797 | inactive: 1.51 |
| CCOP(=O)(OCC)c1ccc(-c2nc(N)sc2C(=O)C(C)(C)C)o1 | inactive: -0.874 | inactive: -1.77 | inactive: 1.22 |
| CNCCSC1=Cc2ccccc2Oc2ccc(F)cc21 [fluradoline] | inactive: 0.769 | inactive: 0.458 | active: 7.11 |
| CN1CCC(=C2c3ccccc3Oc3ccc(Cl)cc32)CC1 [clopipazan] | inactive: -0.693 | inactive: 0.524 | inactive: 0.313 |
| CC(C)[C@H](N)C(=O)N[C@@H](Cc1cnc[nH]1)C(=O)N[C@H](C(=O)N[C@@H](CC(N)=O)C(=O)O)[C@@H](C)O | – | inactive: -0.592 and inactive: -1.05 | inactive: -1.42 and inactive: 2.65 |
| O=C(CO)NCCCOc1cccc(CN2CCCCC2)c1 | inactive: -0.61 | inactive: -0.236 | inactive: -1.54 |
| C/C(=C(\CCOC(=O)c1ccccc1)SC(=O)c1ccccc1)N(C=O)Cc1cnc(C)nc1N [Dibenzoyl Thiamine] | inactive: -1.83 | inactive: -0.0567 | inactive: -0.679 |
| CCSC(=O)c1cccc(C(=O)SCC)c1 | inactive: -1.9 | inactive: -1.59 | inactive: 0.0813 |
| CCN(CC)c1ccc(S(=O)(=O)N2CCOCC2)cc1NC1=Nc2cccc3cccc1c23 | inactive: 0.919 | inactive: -0.787 | inactive: 1.82 |
| CC(=O)N[C@@H](CC(C)C)C(=O)O [Tanganil] | inactive: 0.728 | inactive: -1.13 | inactive: -0.0822 |
| CC(C)=CC(=O)NS(=O)(=O)c1ccc(N)cc1 | inactive: -0.876 | inactive: -1.31 | inactive: -1.08 |
| CC(C)=CCOc1cc(NC(=O)c2ccoc2)ccc1Cl | inactive: 0.482 | inactive: 0.0808 | inactive: 0.492 |
| COc1cc(COc2cc(N)c(Cl)cc2C(=O)CCC2CCN(CCNS(C)(=O)=O)CC2)cc(OC)c1 | inactive: 3.93 | inactive: -1.48 | inactive: 0.29 |
| Nc1c(Cl)cc(C(O)CNCCCCCCOCCc2ccccn2)cc1Cl (stereo not given) [Picumeterol] | inactive: -0.838 | inactive: -0.351 | inactive: 0.117 |
| CN1CCN(CC(=O)N2c3ccccc3C(=O)Nc3cccnc32)CC1 [pirenzepine] | inactive: -0.65 | inactive: 1.28 | inactive: -0.0662 |
| CCC(CC)NC(=O)c1cnc2cc(C)nn2c1 | inactive: 0.155 | – | inactive: -0.725 |
| Cc1ccc(OC(C)(C)[C@@H]2OC[C@@H](C/C=C\CCC(=O)O)[C@H](c3cccnc3)O2)c([N+](=O)[O-])c1 | inactive: -0.62 | inactive: -0.098 | inactive: -0.299 |
| C1OC1CN1CCC(C2CCN(CC3CO3)CC2)CC1 (stereo not given) | inactive: -1.48 | inactive: 0.0757 | inactive: 0.882 |
| O=C(OCCO)c1ccccc1O | inactive: -1.23 | inactive: -1.65 | inactive: 0.317 |
| CN1CCN(c2ccc(OC(F)(F)F)c(Nc3ncc4c(n3)-c3c(c(C(N)=O)nn3CCO)CC4)c2)CC1 | inactive: -3.33 | inactive: -0.911 | inactive: 3.98 |
| Clc1ccc(Nc2nnc(Cc3ccncc3)c3ccccc23)cc1 [Vatalanib succinate] | inactive: -1.21 | inactive: -1.18 | active: 7.83 |
| CCOC(CN1CCN(CC(C)C(=O)c2ccccc2)CC1)c1ccccc1 (stereo not given) | inactive: 0.314 | inactive: -1.19 | inactive: -0.848 |

| SMILES | TEAD-luciferase reporter activity (compound concentration: 200 nM) | TEAD-luciferase reporter activity (compound concentration: 2 uM) | TEAD-luciferase reporter activity (compound concentration: 10 uM) |
| --- | --- | --- | --- |
| O=C1NC2(Cc3ccccc31)CN(CC1CCCC1)C2 | active: 5.53 | – | inactive: -0.486 |
| Nc1ccc(S(=O)(=O)Nc2cccc3c(Cl)c[nH]c23)cn1 | inactive: 0.118 | inactive: 2.69 | inactive: 2.73 |
| CC1CN(C(=O)CC#N)C12CCCN(c1ncnc3[nH]ccc13)C2 (stereo not given) [mistaken for JTE-052] | inactive: -0.383 | inactive: 0.7 | inactive: -0.179 |
| NC1=NC(=O)N([C@H]2C[C@@H](O)[C@@H](CO)O2)CN1 | inactive: -0.371 | inactive: -0.165 | inactive: 0.557 |
| CC(C)(C)NCC(O)c1ccc(CO)c(O)c1 (stereo not given) [salbutamol] | – | inactive: -0.374 | – |
| CC(CN(C)C)Oc1cccc(Br)c1-c1cc2c(c3c1C(=O)N(C)C3=O)c1ccccc1n2C (stereo not given) | inactive: -0.309 | inactive: 0.177 | inactive: 1.92 |
| O=C(O)c1ccc(CCCC2SCC(=O)N2CCC2(O)CCCCC2)cc1 (stereo not given) | inactive: -1.88 | inactive: 0.491 | inactive: 2.22 |
| O=C(Oc1ccccc1C(=O)O)c1ccccc1O [Salsalate] | inactive: 0.617 | inactive: 0.366 | inactive: 0.988 |
| CC(C)S(=O)(=O)N[C@H]1CC[C@H](CNc2nc(-c3ccccn3)cs2)CC1 | inactive: 3.36 | inactive: -0.746 | inactive: -0.751 |
| O=C(NC(=O)c1ccccc1[N+](=O)[O-])Nc1ccc(Oc2ncc(Br)cn2)c(Cl)c1 | inactive: -1.35 | inactive: 2.85 | inactive: 2.69 |
| CC[C@H](C)C1NC(=O)[C@H](CCCNC(=N)N)NC(=O)C(CC(=O)O)NC(=O)C(CCSC)NC(=O)C(CCCNC(=N)N)NC(=O)CNC(=O)CNC(=O)[C@H](Cc2ccccc2)NC(=O)C(NC(=O)[C@H](CO)NC(=O)[C@H](CO)NC(=O)[C@@H](N)CCCNC(=N)N)CSSC[C@@H](C(=O)N[C@@H](CC(N)=O)C(=O)N[C@@H](CO)C(=O)N[C@@H](Cc2ccccc2)C(=O)N[C@@H](CCCNC(=N)N)C(=O)N[C@@H](Cc2ccc(O)cc2)C(=O)O)NC(=O)CNC(=O)C(CC(C)C)NC(=O)CNC(=O)C(CO)NC(=O)[C@H](CCC(N)=O)NC(=O)[C@H](C)NC(=O)CNC1=O (stereo not given in full) [Anaritide] | inactive: -0.305 | – | inactive: 0.0158 |
| COc1ccccc1N1CCN(CC(O)c2ccc(F)cc2)CC1 (stereo not given) | inactive: -0.694 | inactive: 0.757 | inactive: 1.08 |
| O=c1[nH]c(=O)n([C@H]2C[C@H](F)[C@@H](CO)O2)cc1Cl | inactive: -0.654 | inactive: -0.678 | inactive: 3.33 |
| COc1nc(C)nc(Cl)c1NC1=NCCN1 [moxonidine] | – | inactive: 0.344 | – |
| COc1nc(C)nc(Cl)c1NC1=NCCN1 | inactive: 1.1 | – | inactive: -0.929 |
| COc1cc(C(C)C)ccc(CN2CCCN(C(c3ccc(F)cc3)c3ccc(F)cc3)CC2)c1=O | inactive: -0.965 | inactive: -1.26 | inactive: 0.939 |
| CC1(C)S[C@@H]2[C@H](NC(=O)c3nc4ccccc4nc3C(=O)O)C(=O)N2[C@H]1C(=O)O | inactive: -0.293 | inactive: -0.0456 | inactive: -0.685 |
| COc1cccc(CN2CCCCC23Cc2ccccc2CNC3=O)c1 (stereo not given) | inactive: 0.482 | – | inactive: -1.23 |
| Oc1ccc(CCNCCCCCCNCCc2ccccc2)cc1O | inactive: 1.43 | inactive: -0.718 | active: 13.4 |
| CN(Cc1ccc(C(F)(F)F)cc1)C1CCc2ccccc21 (stereo not given) | inactive: -1 | – | active: 7.03 |
| C=C1C(=O)O[C@@H]2[C@H]3O[C@]3(C)CC/C=C(\C)CC[C@@H]12 [Parthenolide] | inactive: 0.283 | inactive: -2.45 | inactive: 0.609 |
| CN(Cc1ccccc1)C(=O)[C@H](Cc1ccc2ccccc2c1)NC(=O)[C@@H]1C[C@@H](O)CN1C(=O)c1cn(C)c2ccccc12 | inactive: 1.45 | inactive: -0.251 | inactive: 1.83 |
| Cc1ccc(NC(=O)c2ccc(CN3CCN(C)CC3)cc2)cc1Nc1nc(-c2cccnc2)cs1 [masitinib] | inactive: -0.532 | active: 6.12 | inactive: 1.65 |
| CC12CCC(=O)CC1CCC1C2CCC2(C)C(C(=O)COC(=O)CCC(=O)O)CCC12 (stereo not given) | inactive: -1.48 | inactive: -0.551 | inactive: -1.66 |
| C[C@]12CCC(=O)C=C1CC[C@@H]1[C@@H]2[C@@H](O)C[C@@]2(C)[C@H]1CC[C@]2(O)C(=O)COC(=O)CCC(=O)[O-] | inactive: 1.31 | – | inactive: -0.586 |
| C[C@]12CCC(=O)C=C1CC[C@@H]1[C@@H]2[C@@H](O)C[C@@]2(C)[C@H]1CC[C@]2(O)C(=O)COC(=O)CCC(=O)[O-] [Hydrocortisone sodium succinate] | – | inactive: 0.12 | – |

A different layout for some results above:
SMILES	TEAD-luciferase reporter activity (compound concentration: 200 nM)	TEAD-luciferase reporter activity (compound concentration: 2 uM)	TEAD-luciferase reporter activity (compound concentration: 10 uM)
CCOC(CN1CCN(CC(C)C(=O)c2ccccc2)CC1)c1ccccc1 (stereo not given)	inactive: 0.314	inactive: -1.19	inactive: -0.848
O=C1NC2(Cc3ccccc31)CN(CC1CCCC1)C2	active: 5.53	–	inactive: -0.486
Nc1ccc(S(=O)(=O)Nc2cccc3c(Cl)c[nH]c23)cn1	inactive: 0.118	inactive: 2.69	inactive: 2.73
